{
  "source": "paper PMC9700037",
  "key": {"[1]": {"biological_target": "T1, NLRP1-FIIND (wt) (human) (UniProt Q9C000)", "T1 sequence": "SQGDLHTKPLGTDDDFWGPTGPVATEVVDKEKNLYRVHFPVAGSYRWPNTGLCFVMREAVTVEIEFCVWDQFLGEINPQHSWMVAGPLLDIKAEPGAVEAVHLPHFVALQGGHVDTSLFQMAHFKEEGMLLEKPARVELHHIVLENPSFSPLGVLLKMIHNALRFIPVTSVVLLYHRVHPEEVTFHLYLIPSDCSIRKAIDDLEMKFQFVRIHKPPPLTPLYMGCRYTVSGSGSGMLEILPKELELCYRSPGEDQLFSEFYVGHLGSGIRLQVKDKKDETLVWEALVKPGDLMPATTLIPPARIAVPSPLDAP", "assay": "pull-down; GST pull-down of GST-tev-FIIND from Sf9 cells co-infected with His6-DPP9 (with or without SUMO-UPA); released from the beads by TEV; SDS-PAGE"}, "[2]": {"biological_target": "T2, NLRP1-FIIND (M1184V) (human) (UniProt Q9C000)", "T2 sequence": "T1 sequence with M121V", "assay": "pull-down; GST pull-down of GST-tev-FIIND from Sf9 cells co-infected with His6-DPP9 (with or without SUMO-UPA); released from the beads by TEV; SDS-PAGE"}},
  "note": "Where a chain is given by its changes, count along the chain named. Results are given in words; binding and its absence hold for the method and conditions named. In cells and extracts the contact can be indirect. Binding calls can cover weak binding; strength is not graded here.",
  "data": [
    {"substance": "free UPA domain (from the SUMO-UPA construct) (human) (domain or fragment)", "values": [
      {"measurement": "binding", "setting": "[1]", "result": "binds"},
      {"measurement": "binding", "setting": "[2]", "result": "binds"}
    ]}
  ]
}
